Source: PubChem BioAssay AID540256 (National Center for Advancing Translational Sciences (NCATS), 2011)
Out of some 300,000 compounds screened, about 3,700 (1.2%) were called active. The shares of active, inactive and inconclusive entries below differ from those in the screen. The call rests on the fitted dose curve; tested in HEK293 cells. Potencies beside an inconclusive call are fits to weak or partial responses and may not hold up.

Test: qHTS for Inhibitors of binding or entry into cells for Lassa Virus; further: nearly all actives have a fitted effect of over 50% in size
Conditions: Lassa virus pseudotype entry inhibition, cell reporter; activity change, negative = inhibition: at 37.9 µM (top of the series) unless noted
On the % scale 0 is the no-effect control and ±100 the full control effect; potency means the concentration at half of the fitted maximal effect.

| SMILES | activity change, negative = inhibition | Potency |
| --- | --- | --- |
| CCCCN=C(Nc1ccc(Cl)cc1)c1cccnc1 | inactive: 0.0843% | – |
| O=C(Nc1ccc(OCC(F)(F)C(F)F)c(C(F)(F)F)c1)c1ccc(Cl)cc1 | – | inconclusive: 35.5 µM [inhibitor, single point] |
| COc1ccc2cc3cc(C(=O)N4CCN(Cc5ccc6c(c5)OCO6)CC4)oc3nc2c1 | – | inconclusive: 1.83 µM [inhibitor, full curve, poor fit] |
| CCCCOC(=O)c1nc[nH]c1C(=O)OCCCC | – | inconclusive: 20 µM [activator, single point] |
| COc1ccc(CCNC(=O)c2ccc3c(c2)N(Cc2ccccc2F)C(=O)c2ccccc2S3=O)cc1OC (stereo unspecified) | – | inconclusive: 20 µM [inhibitor, single point] |
| COc1ccc(/C=N/NC(=O)c2ccco2)cc1Cn1nc(C)c([N+](=O)[O-])c1C | inactive: -2.82% | – |
| COC(=O)c1cccc(NC(=O)c2nsc3ccccc23)c1 | – | inconclusive: 0.562 µM [activator, full curve, poor fit] |
| CC(NC(=O)C1C2C=CC(C2)C1C(=O)O)c1ccccc1 (stereo unspecified) | – | inconclusive: 1.3 µM [inhibitor, partial curve] |
| COC(=O)c1sc(NC(=O)c2cccc([N+](=O)[O-])c2)c(C(N)=O)c1C | – | inconclusive: 0.398 µM [inhibitor, partial curve, poor fit] |
| O=C(Nc1ccc2nn(-c3ccccc3)nc2c1)c1ccc(Br)o1 | – | inconclusive: 29.1 µM [inhibitor, single point] |
| O=C(c1cc(F)ccc1F)N1CCC(N2CCC(C(=O)N3CCCC3)CC2)CC1 | inactive: -1.41% [at 46.1 µM] | – |
| CS(=O)(=O)c1ccc(C(=O)OCC(=O)NCc2cccs2)cc1[N+](=O)[O-] | – | inconclusive: 17.8 µM [inhibitor, single point] |
| CCOc1ccc(OCC(=O)Nc2nccs2)cc1 | – | inconclusive: 8.91 µM [inhibitor, partial curve, poor fit] |
| O=c1oc(-c2cccs2)nc2sc3c(c12)CCCC3 | – | inconclusive: 29.1 µM [inhibitor, single point] |
| COCCCNC(=O)c1ccc2nc3ccccc3c(=O)n2c1 | inactive: -24.6% | – |
| CC(/C=N/NC(=O)c1cc(-c2cccnc2)nc2c1c(C)nn2-c1ccccc1)=C\c1ccccc1 | – | inconclusive: 1 µM [inhibitor, full curve] |
| Cc1cc(Cl)ccc1NC(=S)NCCCO | inactive: 0.0336% | – |
| CCN1CCN(C(=O)Cn2c(-c3cccs3)cc3ccccc32)CC1 | – | inconclusive: 15.8 µM [activator, single point] |
| OCCN(CC#CC(O)(c1ccccc1)c1ccccc1)CCO | – | inconclusive: 1 µM [inhibitor, single point] |
| O=C(NN=C1CCCC1)c1ccc(Br)cc1 | – | inconclusive: 1.58 µM [inhibitor, partial curve, poor fit] |
| O=C(Nc1ccc2oc(-c3ccncc3)nc2c1)c1ccco1 | inactive: 2.93% [at 46.1 µM] | – |
| COc1ccc(/C=C/c2c([N+](=O)[O-])c(=O)n(C)c(=O)n2C)cc1OC | inactive: 12.7% | – |
| O=c1oc2cc(O)ccc2cc1-c1nnc(Nc2ccccc2F)s1 | – | inconclusive: 0.562 µM [inhibitor, full curve, poor fit] |
| COc1ccc(CNc2nc3ccccc3n2CCN2CCCCC2)cc1 | inactive: -9.49% [at 46.1 µM] | – |

A run of entries from the list above, as a working copy:

| SMILES | activity change, negative = inhibition | Potency |
| --- | --- | --- |
| CCCCOC(=O)c1nc[nH]c1C(=O)OCCCC | – | inconclusive: 20 µM [activator, single point] |
| COc1ccc(CCNC(=O)c2ccc3c(c2)N(Cc2ccccc2F)C(=O)c2ccccc2S3=O)cc1OC (stereo unspecified) | – | inconclusive: 20 µM [inhibitor, single point] |
| COc1ccc(/C=N/NC(=O)c2ccco2)cc1Cn1nc(C)c([N+](=O)[O-])c1C | inactive: -2.82% | – |
| COC(=O)c1cccc(NC(=O)c2nsc3ccccc23)c1 | – | inconclusive: 0.562 µM [activator, full curve, poor fit] |

Continued:

| SMILES | activity change, negative = inhibition | Potency |
| --- | --- | --- |
| O=C1C(=O)N(CCN2CCOCC2)C(c2ccccn2)/C1=C(/O)c1ccc(F)cc1 (stereo unspecified) | inactive: 8.38% | – |
| CCCNC(=O)C(C)n1nc(C)c2c(C)n(-c3ccccc3)nc2c1=O (stereo unspecified) | inactive: 1.8% [at 46.1 µM] | – |
| Cc1nc([N+](=O)[O-])cn1CC(O)c1ccc(F)cc1 (stereo unspecified) | inactive: 9.94% | – |
| Cc1ccc(CNC(=O)CSc2nc3c(sc4ccccc43)c(=O)n2CCCN2CCCC2)cc1 | – | inconclusive: 14.1 µM [inhibitor, partial curve, poor fit] |
| C#CCN1C(C)=CC(=O)[C@@H](O)[C@H]1c1ccccc1Br | – | inconclusive: 0.628 µM [activator, full curve, poor fit] |
| Cc1cccc(N2CCN(C(=O)c3ccc4[nH]c(C)c(C)c4c3)CC2)c1C | – | inconclusive: 1.12 µM [inhibitor, full curve, poor fit] |
| CC(C)Cn1cnc2c(c(-c3ccccc3)c(-c3ccccc3)n2Cc2ccco2)c1=N | – | active: 6.31 µM |
| O=C(N/N=C/c1c[nH]c2ccc(Br)cc12)c1ccn(Cc2ccc(Cl)cc2Cl)n1 | – | inconclusive: 22.4 µM [inhibitor, single point] |
| COc1ccc(-n2c(-c3ccc(C)cc3)cc3c2CC(C)(C)CC3=O)c(OC)c1 | – | inconclusive: 35.5 µM [inhibitor, single point] |
| Cc1ccc(Nc2nnc(SC3CCOC3=O)s2)cc1 (stereo unspecified) | – | inconclusive: 17.8 µM [activator, partial curve, poor fit] |
| COc1cc(/C=C/C(=O)N2CCN(C(=O)/C=C/c3cc(OC)c(OC)c(OC)c3)CC2)cc(OC)c1OC | inactive: -20.3% [at 46.1 µM] | – |
| CCC(=O)n1nc(-c2ccc(OC)cc2)nc1SC | – | inconclusive: 5.62 µM [activator, single point] |
| CC1=C(/C=C/C(C)=N\NC(=O)c2ccncc2)C(C)(C)CCC1 | – | inconclusive: 17.8 µM [inhibitor, single point] |
| COC(=O)c1sccc1NC(=O)c1csc(C)c1 | inactive: -13.4% | – |
| CC1CCc2onc(C(=O)O)c2C1 (stereo unspecified) | inactive: 1.94% [at 46.1 µM] | – |
| Cc1ccc(C(=O)Oc2c(S(=O)(=O)c3ccccc3)c(C)nn2-c2ccccc2)cc1 | inactive: -3.68% [at 46.1 µM] | – |
| C=CCNC(=O)COc1ccc(S(=O)(=O)Nc2ccc(OCC)cc2)cc1 | – | inconclusive: 12.6 µM [inhibitor, single point] |
| COc1ccccc1OCCn1c(=O)n(C)c2ccccc21 | inactive: 11.3% [at 46.1 µM] | – |
| CN1CCN(c2nc(Nc3ccc(O)cc3)nc3ccccc23)CC1 | – | inconclusive: 10 µM [inhibitor, partial curve, poor fit] |
| Cn1c(SCc2nc3ccccc3c(=O)[nH]2)nc2ccccc21 | – | inconclusive: 5.01 µM [inhibitor, single point] |
| CC1Cc2ccccc2N1C(=O)CSc1nnc2n1C(C)(C)Cc1ccccc1-2 (stereo unspecified) | inactive: -27.2% | – |
| COc1ccc(N(CC(=O)NC(C)c2ccccc2)S(=O)(=O)c2c(C)nn(C)c2C)cc1 (stereo unspecified) | inactive: 21.4% [at 46.1 µM] | – |
| NS(=O)(=O)c1cccc(NC(=S)NC(=O)C23CC4CC(CC(C4)C2)C3)c1 | – | inconclusive: 29.1 µM [inhibitor, single point] |
| CC(C)Nc1ccc(-c2nc(-c3ccncc3)no2)cc1[N+](=O)[O-] | inactive: 16.3% [at 46.1 µM] | – |

| SMILES | activity change, negative = inhibition | Potency |
| --- | --- | --- |
| COCCNC(=O)C(OC(=O)c1ccco1)c1ccc(OC)cc1 (stereo unspecified) | – | inconclusive: 5.01 µM [activator, single point] |
| COC(c1ccccc1)c1nnc(CCC(=O)N(C)CCOc2ccccc2)o1 (stereo unspecified) | – | inconclusive: 15.8 µM [inhibitor, partial curve, poor fit] |
| CN(CCCCN1CCOCC1)Cc1nc(-c2ccc3c(c2)OCO3)no1 | inactive: -3.13% [at 46.1 µM] | – |
| Cc1ccc(NC(=O)c2cccc(S(=O)(=O)N(C)c3ccccc3)c2)cc1S(=O)(=O)N1CCOCC1 | – | inconclusive: 29.1 µM [inhibitor, single point] |
| Cc1c(Cl)cccc1NC(=S)N1CCN(c2ccccn2)CC1 | – | inconclusive: 6.31 µM [inhibitor, single point] |
| C=CCN1C=CC(=C/C=C(/C#N)C(=O)OCC)C=C1 | – | inconclusive: 7.94 µM [inhibitor, partial curve, poor fit] |
| Cc1ccc(NC(=O)CN2C(=O)CCc3ccccc32)cc1C | inactive: 12.9% [at 46.1 µM] | – |
| COc1cccc(C(NC(C)=O)c2ccc3cccnc3c2O)c1 (stereo unspecified) | – | inconclusive: 3.55 µM [inhibitor, partial curve, poor fit] |
| CCOc1cc2nc(-c3ccc(OC)c(OC)c3)nc(N3CCOCC3)c2cc1OC | – | inconclusive: 11.2 µM [inhibitor, partial curve, poor fit] |
| CC1(C)c2ccccc2N2CC(=O)NC21/C=C/c1ccco1 (stereo unspecified) | – | inconclusive: 11.2 µM [inhibitor, partial curve] |
| COc1ccc(-c2c3c(=O)n(C)c(=O)n(C)c3cn2-c2ccc(O)cc2)cc1 | – | inconclusive: 35.5 µM [inhibitor, partial curve, poor fit] |
| CC(=O)Nc1sc2c(c1C#N)CCC(C)C2 (stereo unspecified) | inactive: 2.24% | – |
| N#Cc1nc(-c2ccc(OCc3ccc(Cl)cc3)cc2)oc1NCc1cccnc1 | – | inconclusive: 12.6 µM [inhibitor, partial curve, poor fit] |
| O=C(Nc1ccc2nn(-c3ccc(F)cc3)nc2c1)c1cccnc1 | – | inconclusive: 0.708 µM [activator, partial curve, poor fit] |
| CCc1ccc(OCc2nc(-c3ccc(-n4cccc4)cc3)no2)cc1 | – | inconclusive: 12.6 µM [inhibitor, partial curve] |
| N#CC1=C(N)Oc2cc(O)c(C=Nc3ccccc3)cc2C1c1ccccc1 (stereo unspecified) | inactive: -8.05% | – |
| Cn1c(Cc2cccs2)nnc1SCC(=O)N1CCc2ccccc21 | – | inconclusive: 0.708 µM [activator, partial curve, poor fit] |
| Cc1ccc(C(=O)NC(=S)NCc2ccco2)cc1 | inactive: 15.5% | – |
| O=C(NCc1ccccc1)c1nc(S(=O)(=O)Cc2ccc(F)cc2)ncc1Cl | – | inconclusive: 35.5 µM [inhibitor, single point] |
| CCOc1ccc(C2C(C(=O)Nc3ccccc3)=C(C)Nc3nc(SCc4cccc(OC)c4)nn32)cc1 (stereo unspecified) | – | inconclusive: 3.98 µM [activator, single point] |
| O=C(NCc1ccc2c(c1)OCO2)NC1CCCCC1 | inactive: -11.4% [at 46.1 µM] | – |
| S=C(NCc1ccco1)N/N=C/c1ccncc1 | inactive: -17.8% [at 46.1 µM] | – |
| CCCNc1nc2ccccc2n2c(C)nnc12 | inactive: -1.48% | – |
